Publication PMC11548754
No constants are given. Whether binding was seen depends on the method and setting. For part of these data: Binding seen in cells or lysates may run through a third protein. Some entries that bind do so weakly or less than the wild type. Tags and fused reporters may be left off the sequences shown. One block for each binder: values may come before it.

Chains of the proteins cited; added tags and fusions are not shown.
UniProt Q9SAD4: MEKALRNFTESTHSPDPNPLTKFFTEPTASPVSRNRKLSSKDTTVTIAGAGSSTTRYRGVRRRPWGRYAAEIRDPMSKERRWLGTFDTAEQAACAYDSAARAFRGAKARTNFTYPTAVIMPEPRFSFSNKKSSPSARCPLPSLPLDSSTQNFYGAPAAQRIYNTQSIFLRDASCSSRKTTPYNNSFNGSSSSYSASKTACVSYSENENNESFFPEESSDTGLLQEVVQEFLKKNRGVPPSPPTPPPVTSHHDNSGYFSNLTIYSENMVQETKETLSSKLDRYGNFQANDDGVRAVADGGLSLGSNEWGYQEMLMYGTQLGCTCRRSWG

Assays:
[1] = target: DRN, full length, yeast two-hybrid fusion (Arabidopsis) (UniProt Q9SAD4); assay: two-hybrid; pGBKT7 (BD) and pGADT7 (AD) fusions in yeast strain Y2H Gold; tested on SD/−Leu/−Trp/−His/−Ade in dilutions of 10^−1, 10^−2 and 10^−3
[2] = target: DRN fused to a split YFP half (BiFC in tobacco leaves) (Arabidopsis) (UniProt Q9SAD4); assay: split reporter; BiFC with split YFP in N. benthamiana leaves, Agrobacterium infiltration, 48 h, confocal microscopy
DRN-Flag (Arabidopsis) = DRN-Flag (Arabidopsis) (UniProt Q9SAD4); assay: co-IP; Arabidopsis protoplasts; PEN-140 buffer; Flag-Trap beads at 4°C for 4 h, IgG as negative control; blots with anti-HA and anti-Flag

binding [1]: binds
B1: N-terminus of BRM (amino acids 1–976), yeast two-hybrid fusion (domain or fragment, UniProt Q6EVK6 1-976)
chain: MQSGGSGGGPARNPAMGPAGRTASTSSAASPSSSSSSVQQQQQQQQQQQQQQQLASRQQQQQHRNSDTNENMFAYQPGGVQGMMGGGNFASSPGSMQMPQQSRNFFESPQQQQQQQQQGSSTQEGQQNFNPMQQAYIQFAMQAQHQKAQQQARMGMVGSSSVGKDQDARMGMLNMQDLNPSSQPQASSSKPSGDQFARGERQTESSSQQRNETKSHPQQQVGTGQLMPGNMIRPMQAPQAQQLVNNMGNNQLAFAQQWQAMQAWARERNIDLSHPANASQMAHILQARMAAQQKAGEGNVASQSPSIPISSQPASSSVVPGENSPHANSASDISGQSGSAKARHALSTGSFASTSSPRMVNPAMNPFSGQGRENPMYPRHLVQPTNGMPSGNPLQTSANETPVLDQNASTKKSLGPAEHLQMQQPRQLNTPTPNLVAPSDTGPLSNSSLQSGQGTQQAQQRSGFTKQQLHVLKAQILAFRRLKKGEGSLPPELLQAISPPPLELQTQRQISPAIGKVQDRSSDKTGEDQARSLECGKESQAAASSNGPIFSKEEDNVGDTEVALTTGHSQLFQNLGKEATSTDVATKEEQQTDVFPVKSDQGADSSTQKNPRSDSTADKGKAVASDGSQSKVPPQANSPQPPKDTASARKYYGPLFDFPFFTRKLDSYGSATANANNNLTLAYDIKDLICEEGAEFLSKKRTDSLKKINGLLAKNLERKRIRPDLVLRLQIEEKKLRLSDLQSRVREEVDRQQQEIMSMPDRPYRKFVRLCERQRLEMNRQVLANQKAVREKQLKTIFQWRKKLLEAHWAIRDARTARNRGVAKYHEKMLREFSKRKDDGRNKRMEALKNNDVERYREMLLEQQTNMPGDAAERYAVLSSFLTQTEDYLHKLGGKITATKNQQEVEEAANAAAVAARLQGLSEEEVRAAATCAREEVVIRNRFTEMNAPKENSSVNKYYTLAHAVNEVVVRQPSML

binding [2]: binds
B2: BRM1-976 fused to the C-terminal YFP half (BiFC in tobacco leaves) (domain or fragment, UniProt Q6EVK6 1-976)
chain: MQSGGSGGGPARNPAMGPAGRTASTSSAASPSSSSSSVQQQQQQQQQQQQQQQLASRQQQQQHRNSDTNENMFAYQPGGVQGMMGGGNFASSPGSMQMPQQSRNFFESPQQQQQQQQQGSSTQEGQQNFNPMQQAYIQFAMQAQHQKAQQQARMGMVGSSSVGKDQDARMGMLNMQDLNPSSQPQASSSKPSGDQFARGERQTESSSQQRNETKSHPQQQVGTGQLMPGNMIRPMQAPQAQQLVNNMGNNQLAFAQQWQAMQAWARERNIDLSHPANASQMAHILQARMAAQQKAGEGNVASQSPSIPISSQPASSSVVPGENSPHANSASDISGQSGSAKARHALSTGSFASTSSPRMVNPAMNPFSGQGRENPMYPRHLVQPTNGMPSGNPLQTSANETPVLDQNASTKKSLGPAEHLQMQQPRQLNTPTPNLVAPSDTGPLSNSSLQSGQGTQQAQQRSGFTKQQLHVLKAQILAFRRLKKGEGSLPPELLQAISPPPLELQTQRQISPAIGKVQDRSSDKTGEDQARSLECGKESQAAASSNGPIFSKEEDNVGDTEVALTTGHSQLFQNLGKEATSTDVATKEEQQTDVFPVKSDQGADSSTQKNPRSDSTADKGKAVASDGSQSKVPPQANSPQPPKDTASARKYYGPLFDFPFFTRKLDSYGSATANANNNLTLAYDIKDLICEEGAEFLSKKRTDSLKKINGLLAKNLERKRIRPDLVLRLQIEEKKLRLSDLQSRVREEVDRQQQEIMSMPDRPYRKFVRLCERQRLEMNRQVLANQKAVREKQLKTIFQWRKKLLEAHWAIRDARTARNRGVAKYHEKMLREFSKRKDDGRNKRMEALKNNDVERYREMLLEQQTNMPGDAAERYAVLSSFLTQTEDYLHKLGGKITATKNQQEVEEAANAAAVAARLQGLSEEEVRAAATCAREEVVIRNRFTEMNAPKENSSVNKYYTLAHAVNEVVVRQPSML

binding (DRN-Flag (Arabidopsis)): binds
B3: BRM-3×HA (domain or fragment, UniProt Q6EVK6 1-976)
chain: MQSGGSGGGPARNPAMGPAGRTASTSSAASPSSSSSSVQQQQQQQQQQQQQQQLASRQQQQQHRNSDTNENMFAYQPGGVQGMMGGGNFASSPGSMQMPQQSRNFFESPQQQQQQQQQGSSTQEGQQNFNPMQQAYIQFAMQAQHQKAQQQARMGMVGSSSVGKDQDARMGMLNMQDLNPSSQPQASSSKPSGDQFARGERQTESSSQQRNETKSHPQQQVGTGQLMPGNMIRPMQAPQAQQLVNNMGNNQLAFAQQWQAMQAWARERNIDLSHPANASQMAHILQARMAAQQKAGEGNVASQSPSIPISSQPASSSVVPGENSPHANSASDISGQSGSAKARHALSTGSFASTSSPRMVNPAMNPFSGQGRENPMYPRHLVQPTNGMPSGNPLQTSANETPVLDQNASTKKSLGPAEHLQMQQPRQLNTPTPNLVAPSDTGPLSNSSLQSGQGTQQAQQRSGFTKQQLHVLKAQILAFRRLKKGEGSLPPELLQAISPPPLELQTQRQISPAIGKVQDRSSDKTGEDQARSLECGKESQAAASSNGPIFSKEEDNVGDTEVALTTGHSQLFQNLGKEATSTDVATKEEQQTDVFPVKSDQGADSSTQKNPRSDSTADKGKAVASDGSQSKVPPQANSPQPPKDTASARKYYGPLFDFPFFTRKLDSYGSATANANNNLTLAYDIKDLICEEGAEFLSKKRTDSLKKINGLLAKNLERKRIRPDLVLRLQIEEKKLRLSDLQSRVREEVDRQQQEIMSMPDRPYRKFVRLCERQRLEMNRQVLANQKAVREKQLKTIFQWRKKLLEAHWAIRDARTARNRGVAKYHEKMLREFSKRKDDGRNKRMEALKNNDVERYREMLLEQQTNMPGDAAERYAVLSSFLTQTEDYLHKLGGKITATKNQQEVEEAANAAAVAARLQGLSEEEVRAAATCAREEVVIRNRFTEMNAPKENSSVNKYYTLAHAVNEVVVRQPSML
